Test results taken from paper PMC10062582.
Results are given in words; binding and its absence hold for the method and conditions named. A result given as binding can be weak or reduced; the word gives no strength. For some assays here: Tags and fused reporters may be left off the sequences shown. Each block holds one molecule with its values, some of them ahead of it.

The chains behind the UniProt entries cited, without tags or fusion partners. Where a name states a change or a piece, a line headed by the entry shows the natural chain unless it says otherwise.
UniProt P32905: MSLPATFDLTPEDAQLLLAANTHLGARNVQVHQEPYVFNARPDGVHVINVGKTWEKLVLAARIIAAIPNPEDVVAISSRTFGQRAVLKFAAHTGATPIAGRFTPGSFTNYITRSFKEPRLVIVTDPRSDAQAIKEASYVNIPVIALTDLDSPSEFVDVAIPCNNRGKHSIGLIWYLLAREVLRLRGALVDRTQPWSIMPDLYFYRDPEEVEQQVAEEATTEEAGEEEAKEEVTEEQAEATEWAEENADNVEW
UniProt P0C0V8: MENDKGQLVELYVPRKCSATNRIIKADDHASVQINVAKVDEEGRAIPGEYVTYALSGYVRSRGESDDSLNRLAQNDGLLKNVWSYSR

What was measured:
[1] = target: T1, Enp1 in fusion with the tandem affinity purification tag (Enp1-TAP) (S. cerevisiae) (UniProt P38333); assay: cryo-EM structure; SSU precursor particles (with 20S pre-rRNA) one-step affinity purified via Enp1-TAP from extract of control strain Y2226 after four hours in glucose medium; state Enp1TAP_A; bait rows: proteins found together in one particle, direct contact not told
T1 sequence: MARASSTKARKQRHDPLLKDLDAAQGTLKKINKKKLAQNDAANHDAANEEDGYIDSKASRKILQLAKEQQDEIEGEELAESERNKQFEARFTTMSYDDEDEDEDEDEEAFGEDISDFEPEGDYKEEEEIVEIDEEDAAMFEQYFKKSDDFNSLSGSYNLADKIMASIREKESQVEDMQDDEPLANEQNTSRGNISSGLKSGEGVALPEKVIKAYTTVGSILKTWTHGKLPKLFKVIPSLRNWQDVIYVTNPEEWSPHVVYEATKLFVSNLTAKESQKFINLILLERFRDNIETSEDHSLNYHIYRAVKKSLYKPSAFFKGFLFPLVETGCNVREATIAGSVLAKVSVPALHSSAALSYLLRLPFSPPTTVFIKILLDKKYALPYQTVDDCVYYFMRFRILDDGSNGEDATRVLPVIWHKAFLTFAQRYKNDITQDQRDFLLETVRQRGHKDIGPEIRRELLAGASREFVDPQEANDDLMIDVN

[2] = target: rpS0/uS2 (S. cerevisiae (endogenous)) (UniProt P32905); assay: as above

binding [1]: binds
Molecule: rpS21/eS21 (from UniProt P0C0V8)

binding [2]: binds
B1: yeast endonuclease Nob1 (enzyme, UniProt Q08444 1-459)
chain: MTENQTAHVRALILDATPLITQSYTHYQNYAQSFYTTPTVFQEIKDAQARKNLEIWQSLGTLKLVHPSENSIAKVSTFAKLTGDYSVLSANDLHILALTYELEIKLNNGDWRLRKKPGDALDASKADVGTDGKQKLTEDNKKEEDSESVPKKKNKRRGGKKQKAKREAREAREAENANLELESKAEEHVEEAGSKEQICNDENIKESSDLNEVFEDADDDGDWITPENLTEAIIKDSGEDTTGSLGVEASEEDRHVALNRPENQVALATGDFAVQNVALQMNLNLMNFMSGLKIKRIRNYMLRCHACFKIFPLPKDGKPKHFCASCGGQGTLLRCAVSVDSRTGNVTPHLKSNFQWNNRGNRYSVASPLSKNSQKRYGKKGHVHSKPQENVILREDQKEYEKVIKQEEWTRRHNEKILNNWIGGGSADNYISPFAITGLKQHNVRIGKGRYVNSSKRRS
